For some of these results: Some peptides are written in HELM: one residue between dots, names in brackets for other building blocks, links after the first $.
test: general procedure: solution-phase peptide synthesis; HATU / N,N-Diisopropylethylamine; details: coupling step

| Substance | step yield |
| --- | --- |
| BocThr(OBn)GlyThr(OBn)GlyLys(Cbz)Thr(OBn)OBn | >100% |
| BocThr(OBn)GlyLys(Cbz)Thr(OBn)OBn | >100% |

test: peptide made by a vendor (solution-phase peptide synthesis; HATU / N,N-Diisopropylethylamine); details: coupling step

| Substance | step yield |
| --- | --- |
| 2-Naphthyl-AlaGlnThr(OBn)GlyThr(OBn)GlyLys(Cbz)Thr(OBn)OBn | 64% |
| 2-PhPh-AlaGlnThr(OBn)GlyThr(OBn)GlyLys(Cbz)Thr(OBn)OBn | 49% |
| Ac-AlaGlnThr(OBn)GlyThr(OBn)GlyLys(Cbz)Thr(OBn)OBn | 33% |
| Ph-AlaGlnThr(OBn)GlyThr(OBn)GlyLys(Cbz)Thr(OBn)OBn | 58% |
| 3-PhPh-AlaGlnThr(OBn)GlyThr(OBn)GlyLys(Cbz)Thr(OBn)OBn | 38% |
| 4-OMePh-AlaGlnThr(OBn)GlyThr(OBn)GlyLys(Cbz)Thr(OBn)OBn | 50% |

same assay, conditions: coupling step, total yield

| Substance | step yield |
| --- | --- |
| BocGlnThr(OBn)GlyThr(OBn)GlyLys(Cbz)Thr(OBn) OBn | 89% |

same assay, conditions: late stage modification step

| Substance | final purity (method not given) | step yield |
| --- | --- | --- |
| Ph-AQTGTGKT | over 90% | 33% |
| 2-PhPh-AQTGTGKT | over 95% | 31% |
| Naphthyl-AQTGTGKT | 85% | 33% |
| BocThr(OBn)GlyLys(Cbz)Thr(OBn)OBn | – | 88% |
| GlnThr(OBn)GlyThr(OBn)GlyLys(Cbz)Thr(OBn)OBn | – | 96% |
| PEPTIDE1{[3PhPh].A.Q.T.G.T.G.K.T}$$$$V2.0 | over 90% | 5% |
| PEPTIDE1{[ac].A.Q.T.G.T.G.K.T}$$$$V2.0 | – | 37% |
| PEPTIDE1{[4MeOPh].A.Q.T.G.T.G.K.T}$$$$V2.0 | 89% | 10% |
